According to article doi:10.1101/2024.08.18.608474:
No constants are given. Whether binding was seen depends on the method and setting. Binding seen in cells or lysates may run through a third protein. A yes stands for co-enrichment or nearness to the bait. Other partners may have been found. For some of these results: No binding means not detected with the bait.

Protein sequences, listed by entry. Tags and fused reporters are not part of them. Residues count along the entry.
UniProt Q13443, residues 29-819: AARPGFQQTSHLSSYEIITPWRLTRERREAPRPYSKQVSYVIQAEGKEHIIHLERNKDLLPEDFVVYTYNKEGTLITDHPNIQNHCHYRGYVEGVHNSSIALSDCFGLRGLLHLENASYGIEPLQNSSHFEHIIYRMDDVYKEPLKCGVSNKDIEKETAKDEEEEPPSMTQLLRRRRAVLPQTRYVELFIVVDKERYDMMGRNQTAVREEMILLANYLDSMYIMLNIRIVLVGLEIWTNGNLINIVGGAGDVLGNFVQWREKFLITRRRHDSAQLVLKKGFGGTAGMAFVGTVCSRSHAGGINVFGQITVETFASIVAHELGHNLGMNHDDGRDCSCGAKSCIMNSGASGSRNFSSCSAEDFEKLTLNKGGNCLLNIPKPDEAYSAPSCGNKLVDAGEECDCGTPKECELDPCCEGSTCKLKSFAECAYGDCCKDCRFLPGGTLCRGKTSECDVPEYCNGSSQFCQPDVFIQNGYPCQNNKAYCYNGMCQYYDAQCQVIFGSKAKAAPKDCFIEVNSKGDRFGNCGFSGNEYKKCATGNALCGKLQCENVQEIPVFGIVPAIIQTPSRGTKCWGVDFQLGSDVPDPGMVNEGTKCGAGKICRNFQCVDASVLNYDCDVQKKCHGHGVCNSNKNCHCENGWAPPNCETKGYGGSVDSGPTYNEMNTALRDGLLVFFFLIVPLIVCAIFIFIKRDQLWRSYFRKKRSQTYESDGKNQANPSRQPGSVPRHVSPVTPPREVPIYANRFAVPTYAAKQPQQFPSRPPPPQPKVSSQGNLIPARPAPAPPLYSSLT
UniProt Q07955: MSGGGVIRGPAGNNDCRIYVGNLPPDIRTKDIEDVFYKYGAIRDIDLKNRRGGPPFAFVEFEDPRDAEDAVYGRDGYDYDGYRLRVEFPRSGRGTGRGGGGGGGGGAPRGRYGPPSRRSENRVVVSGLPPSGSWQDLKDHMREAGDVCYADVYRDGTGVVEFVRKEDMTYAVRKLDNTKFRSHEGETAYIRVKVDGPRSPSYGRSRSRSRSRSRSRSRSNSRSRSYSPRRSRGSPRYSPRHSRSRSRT
UniProt Q03164: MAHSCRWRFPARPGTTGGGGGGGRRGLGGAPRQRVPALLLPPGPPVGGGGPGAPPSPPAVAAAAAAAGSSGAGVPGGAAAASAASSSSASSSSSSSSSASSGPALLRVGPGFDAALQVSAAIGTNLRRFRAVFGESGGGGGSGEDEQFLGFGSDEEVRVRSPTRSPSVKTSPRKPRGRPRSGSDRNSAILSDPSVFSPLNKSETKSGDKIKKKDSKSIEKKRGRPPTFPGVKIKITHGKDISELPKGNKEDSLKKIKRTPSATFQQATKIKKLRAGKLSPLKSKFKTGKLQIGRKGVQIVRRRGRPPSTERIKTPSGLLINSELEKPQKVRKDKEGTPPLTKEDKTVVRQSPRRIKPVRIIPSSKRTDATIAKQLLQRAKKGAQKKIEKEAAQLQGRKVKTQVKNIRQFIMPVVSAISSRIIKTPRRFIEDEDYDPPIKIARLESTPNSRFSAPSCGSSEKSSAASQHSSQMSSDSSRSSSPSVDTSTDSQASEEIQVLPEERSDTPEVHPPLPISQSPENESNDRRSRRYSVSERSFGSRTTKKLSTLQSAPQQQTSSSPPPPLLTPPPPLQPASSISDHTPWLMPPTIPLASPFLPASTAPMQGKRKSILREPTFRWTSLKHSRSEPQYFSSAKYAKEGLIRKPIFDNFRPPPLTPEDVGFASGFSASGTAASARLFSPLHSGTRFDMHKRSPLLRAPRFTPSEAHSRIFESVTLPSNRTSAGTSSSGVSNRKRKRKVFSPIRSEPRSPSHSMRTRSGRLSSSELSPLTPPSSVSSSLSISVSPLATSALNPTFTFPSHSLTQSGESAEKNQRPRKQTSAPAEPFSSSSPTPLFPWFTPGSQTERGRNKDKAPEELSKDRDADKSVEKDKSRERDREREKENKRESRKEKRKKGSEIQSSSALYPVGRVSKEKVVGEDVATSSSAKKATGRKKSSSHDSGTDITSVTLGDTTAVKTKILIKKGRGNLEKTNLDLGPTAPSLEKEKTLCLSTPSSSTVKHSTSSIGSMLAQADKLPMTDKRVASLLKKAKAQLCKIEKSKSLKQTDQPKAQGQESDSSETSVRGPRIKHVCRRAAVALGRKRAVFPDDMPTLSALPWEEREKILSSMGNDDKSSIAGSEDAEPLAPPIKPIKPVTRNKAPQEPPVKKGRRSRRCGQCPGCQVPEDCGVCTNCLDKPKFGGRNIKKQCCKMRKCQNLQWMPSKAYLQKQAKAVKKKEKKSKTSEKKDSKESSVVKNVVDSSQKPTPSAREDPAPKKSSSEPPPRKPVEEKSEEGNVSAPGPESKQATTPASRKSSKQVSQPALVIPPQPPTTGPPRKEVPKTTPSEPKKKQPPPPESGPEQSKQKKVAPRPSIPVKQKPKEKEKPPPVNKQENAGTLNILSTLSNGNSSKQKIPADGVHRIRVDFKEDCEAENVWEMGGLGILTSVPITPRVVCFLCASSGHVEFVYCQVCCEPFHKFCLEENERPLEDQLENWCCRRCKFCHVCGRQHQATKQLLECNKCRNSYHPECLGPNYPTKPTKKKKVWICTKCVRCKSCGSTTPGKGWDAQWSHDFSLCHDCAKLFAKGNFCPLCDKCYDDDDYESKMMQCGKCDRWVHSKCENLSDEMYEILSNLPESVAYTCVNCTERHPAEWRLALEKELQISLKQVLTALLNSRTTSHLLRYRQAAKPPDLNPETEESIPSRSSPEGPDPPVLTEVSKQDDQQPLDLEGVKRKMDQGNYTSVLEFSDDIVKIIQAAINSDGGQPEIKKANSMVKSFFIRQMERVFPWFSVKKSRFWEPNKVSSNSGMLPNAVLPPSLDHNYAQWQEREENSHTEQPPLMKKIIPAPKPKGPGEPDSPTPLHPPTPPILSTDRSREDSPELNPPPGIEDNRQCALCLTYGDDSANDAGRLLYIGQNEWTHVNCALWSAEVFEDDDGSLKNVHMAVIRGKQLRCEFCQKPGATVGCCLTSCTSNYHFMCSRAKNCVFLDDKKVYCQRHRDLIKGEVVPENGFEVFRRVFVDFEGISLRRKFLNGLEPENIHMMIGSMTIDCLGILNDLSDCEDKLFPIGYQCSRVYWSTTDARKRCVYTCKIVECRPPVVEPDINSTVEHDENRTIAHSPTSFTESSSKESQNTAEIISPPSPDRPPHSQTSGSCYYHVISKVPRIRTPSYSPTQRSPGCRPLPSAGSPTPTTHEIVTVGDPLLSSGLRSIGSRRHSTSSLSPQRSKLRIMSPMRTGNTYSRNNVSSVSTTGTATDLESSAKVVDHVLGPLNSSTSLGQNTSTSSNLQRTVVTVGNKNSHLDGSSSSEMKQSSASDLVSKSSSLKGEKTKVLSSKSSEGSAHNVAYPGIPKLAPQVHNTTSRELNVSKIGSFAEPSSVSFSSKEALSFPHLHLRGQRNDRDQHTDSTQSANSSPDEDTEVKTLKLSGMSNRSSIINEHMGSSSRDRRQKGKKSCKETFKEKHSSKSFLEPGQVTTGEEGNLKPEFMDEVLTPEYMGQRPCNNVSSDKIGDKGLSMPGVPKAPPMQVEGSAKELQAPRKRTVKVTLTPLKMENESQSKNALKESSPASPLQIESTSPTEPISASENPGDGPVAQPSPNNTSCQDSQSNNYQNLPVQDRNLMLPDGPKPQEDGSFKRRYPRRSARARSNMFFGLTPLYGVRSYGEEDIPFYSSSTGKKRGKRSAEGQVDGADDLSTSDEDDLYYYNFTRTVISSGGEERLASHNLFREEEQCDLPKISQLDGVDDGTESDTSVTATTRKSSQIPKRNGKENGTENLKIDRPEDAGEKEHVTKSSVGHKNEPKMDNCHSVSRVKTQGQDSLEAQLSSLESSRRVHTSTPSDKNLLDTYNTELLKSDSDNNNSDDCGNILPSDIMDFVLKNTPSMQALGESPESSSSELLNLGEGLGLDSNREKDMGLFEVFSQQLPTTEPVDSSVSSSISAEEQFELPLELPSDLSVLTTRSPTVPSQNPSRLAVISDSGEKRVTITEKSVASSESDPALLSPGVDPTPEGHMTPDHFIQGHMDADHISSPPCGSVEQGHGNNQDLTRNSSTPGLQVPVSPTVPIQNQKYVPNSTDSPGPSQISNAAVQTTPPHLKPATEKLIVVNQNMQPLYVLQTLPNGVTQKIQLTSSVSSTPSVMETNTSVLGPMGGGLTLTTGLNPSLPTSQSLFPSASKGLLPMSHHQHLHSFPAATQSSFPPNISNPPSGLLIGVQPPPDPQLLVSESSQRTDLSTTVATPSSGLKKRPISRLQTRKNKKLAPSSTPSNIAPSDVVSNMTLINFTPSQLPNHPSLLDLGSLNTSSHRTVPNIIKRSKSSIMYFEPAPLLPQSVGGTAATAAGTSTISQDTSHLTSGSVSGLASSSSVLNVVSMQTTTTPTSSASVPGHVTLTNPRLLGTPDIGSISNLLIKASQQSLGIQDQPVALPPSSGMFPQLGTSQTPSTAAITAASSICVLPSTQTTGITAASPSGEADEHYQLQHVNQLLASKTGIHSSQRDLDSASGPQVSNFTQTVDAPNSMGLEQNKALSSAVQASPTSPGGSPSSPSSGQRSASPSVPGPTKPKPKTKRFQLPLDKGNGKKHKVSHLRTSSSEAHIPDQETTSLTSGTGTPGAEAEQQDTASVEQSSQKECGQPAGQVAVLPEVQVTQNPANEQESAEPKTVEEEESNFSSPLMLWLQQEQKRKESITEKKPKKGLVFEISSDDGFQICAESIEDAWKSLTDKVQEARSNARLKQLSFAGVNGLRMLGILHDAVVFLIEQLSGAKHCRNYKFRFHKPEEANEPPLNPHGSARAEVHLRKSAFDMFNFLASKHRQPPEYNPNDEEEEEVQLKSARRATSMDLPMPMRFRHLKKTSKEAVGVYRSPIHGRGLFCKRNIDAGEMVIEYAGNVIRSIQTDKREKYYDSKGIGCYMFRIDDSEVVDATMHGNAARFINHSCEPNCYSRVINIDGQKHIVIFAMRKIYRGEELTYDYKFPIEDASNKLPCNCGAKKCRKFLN
UniProt P26599: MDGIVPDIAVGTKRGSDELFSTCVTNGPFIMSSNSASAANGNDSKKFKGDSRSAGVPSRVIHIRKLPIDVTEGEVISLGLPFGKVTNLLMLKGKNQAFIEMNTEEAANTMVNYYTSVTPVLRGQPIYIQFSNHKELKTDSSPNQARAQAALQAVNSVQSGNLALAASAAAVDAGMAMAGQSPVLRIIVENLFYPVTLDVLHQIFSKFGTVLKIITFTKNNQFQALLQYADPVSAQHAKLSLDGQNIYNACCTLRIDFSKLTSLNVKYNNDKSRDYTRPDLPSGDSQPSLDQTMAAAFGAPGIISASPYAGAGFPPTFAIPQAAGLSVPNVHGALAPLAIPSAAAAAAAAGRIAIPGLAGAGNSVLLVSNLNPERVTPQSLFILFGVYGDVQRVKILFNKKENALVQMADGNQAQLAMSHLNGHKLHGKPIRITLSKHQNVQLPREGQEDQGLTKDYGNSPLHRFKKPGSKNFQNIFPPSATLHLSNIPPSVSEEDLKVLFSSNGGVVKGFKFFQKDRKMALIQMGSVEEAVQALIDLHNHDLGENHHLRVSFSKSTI
UniProt Q9UNF0: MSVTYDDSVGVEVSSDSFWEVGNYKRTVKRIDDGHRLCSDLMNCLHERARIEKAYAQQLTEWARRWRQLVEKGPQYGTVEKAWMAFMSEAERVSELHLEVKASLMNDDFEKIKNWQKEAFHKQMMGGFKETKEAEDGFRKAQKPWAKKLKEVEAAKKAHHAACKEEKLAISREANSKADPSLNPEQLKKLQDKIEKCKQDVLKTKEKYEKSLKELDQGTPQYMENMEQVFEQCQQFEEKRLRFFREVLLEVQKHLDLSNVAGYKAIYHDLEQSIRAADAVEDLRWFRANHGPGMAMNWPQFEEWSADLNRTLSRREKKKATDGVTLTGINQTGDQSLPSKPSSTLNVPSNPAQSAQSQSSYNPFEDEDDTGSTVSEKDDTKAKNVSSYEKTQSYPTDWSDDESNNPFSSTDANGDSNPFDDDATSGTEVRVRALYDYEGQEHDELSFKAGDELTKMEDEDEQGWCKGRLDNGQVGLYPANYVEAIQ

How the values were obtained:
[1] = target: human ADAM9 (human (endogenous in HEK293T)) (UniProt Q13443); experiment: affinity purification with mass spectrometry
[2] = target: Adam13 (Xenopus laevis adam13.L) (Xenopus laevis) (UniProt O12960); experiment: affinity purification with mass spectrometry
[3] = target: Adam13-BioID (Xenopus laevis) (UniProt O12960); experiment: proximity labelling
[4] = target: Adam13 mutant lacking the cytoplasmic domain (Xenopus laevis); experiment: affinity purification with mass spectrometry

Row | Molecule | binding [1] | binding [2] | binding [3] | binding [4]
1 | PABPC1 (from UniProt P11940 1-636) | binds | binds |  | 
2 | SRSF1 (from UniProt Q07955 1-248) |  | binds |  | 
3 | KMT2A (from UniProt Q03164 1-3969) | binds |  | binds | 
4 | PTBP1 (from UniProt P26599 1-557) | binds | binds |  | 
5 | KDM3B (from UniProt Q7LBC6 1-1761) |  |  | binds | 
6 | KDM4B (from UniProt O94953 1-1096) |  |  | binds | 
7 | PACSIN2 (from UniProt Q9UNF0 1-486) |  |  | binds | 
8 | SART1 (protein, UniProt O43290 1-800) MGSSKKHRGEKEAAGTTAAAGTGGATEQPPRHREHKKHKHRSGGSGGSGGERRKRSRERGGERGSGRRGAEAEARSSTHGRERSQAEPSERRVKREKRDDGYEAAASSKTSSGDASSLSIEETNKLRAKLGLKPLEVNAIKKEAGTKEEPVTADVINPMALRQREELREKLAAAKEKRLLNQKLGKIKTLGEDDPWLDDTAAWIERSRQLQKEKDLAEKRAKLLEEMDQEFGVSTLVEEEFGQRRQDLYSARDLQGLTVEHAIDSFREGETMILTLKDKGVLQEEEDVLVNVNLVDKERAEKNVELRKKKPDYLPYAEDESVDDLAQQKPRSILSKYDEELEGERPHSFRLEQGGTADGLRERELEEIRAKLRLQAQSLSTVGPRLASEYLTPEEMVTFKKTKRRVKKIRKKEKEVVVRADDLLPLGDQTQDGDFGSRLRGRGRRRVSEVEEEKEPVPQPLPSDDTRVENMDISDEEEGGAPPPGSPQVLEEDEAELELQKQLEKGRRLRQLQQLQQLRDSGEKVVEIVKKLESRQRGWEEDEDPERKGAIVFNATSEFCRTLGEIPTYGLAGNREEQEELMDFERDEERSANGGSESDGEENIGWSTVNLDEEKQQQDFSASSTTILDEEPIVNRGLAAALLLCQNKGLLETTVQKVARVKAPNKSLPSAVYCIEDKMAIDDKYSRREEYRGFTQDFKEKDGYKPDVKIEYVDETGRKLTPKEAFRQLSHRFHGKGSGKMKTERRMKKLDEEALLKKMSSSDTPLGTVALLQEKQKAQKTPYIVLSGSGKSMNANTITK | binds | binds |  | 
9 | SRSF3 (protein, UniProt P84103 1-164) MHRDSCPLDCKVYVGNLGNNGNKTELERAFGYYGPLRSVWVARNPPGFAFVEFEDPRDAADAVRELDGRTLCGCRVRVELSNGEKRSRNRGPPPSWGRRPRDDYRRRSPPPRRRSPRRRSFSRSRSRSLSRDRRRERSLSRERNHKPSRSFSRSRSRSRSNERK |  | binds |  | no binding
10 | SRSF7 (protein, UniProt Q16629 1-238) MSRYGRYGGETKVYVGNLGTGAGKGELERAFSYYGPLRTVWIARNPPGFAFVEFEDPRDAEDAVRGLDGKVICGSRVRVELSTGMPRRSRFDRPPARRPFDPNDRCYECGEKGHYAYDCHRYSRRRRSRSRSRSHSRSRGRRYSRSRSRSRGRRSRSASPRRSRSISLRRSRSASLRRSRSGSIKGSRYFQSPSRSRSRSRSISRPRSSRSKSRSPSPKRSRSPSGSPRRSASPERMD |  | binds |  | no binding
